Assay results as given in BindingDB's records for PubMed 11546835 (Mcgill University, 2001).

The chains behind the UniProt entries cited, without tags or fusion partners. Where a name states a change or a piece, a line headed by the entry shows the natural chain unless it says otherwise.
UniProt P35377: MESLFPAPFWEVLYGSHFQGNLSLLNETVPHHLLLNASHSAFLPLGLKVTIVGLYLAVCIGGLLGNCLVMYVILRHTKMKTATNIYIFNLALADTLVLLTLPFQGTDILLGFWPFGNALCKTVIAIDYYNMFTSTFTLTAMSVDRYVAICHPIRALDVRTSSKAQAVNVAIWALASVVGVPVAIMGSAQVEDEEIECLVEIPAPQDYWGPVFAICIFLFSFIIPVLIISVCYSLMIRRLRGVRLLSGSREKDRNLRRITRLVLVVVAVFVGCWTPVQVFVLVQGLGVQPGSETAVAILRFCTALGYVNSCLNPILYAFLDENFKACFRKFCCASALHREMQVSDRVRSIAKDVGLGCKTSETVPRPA

Biological target: Nociceptin receptor (Mus musculus, UniProt P35377)

SMILES: CN1CC[C@]23c4c5ccc(O)c4O[C@H]2[C@@H](O)C=C[C@H]3[C@H]1C5 [CAS_23552-18-3]
- Ki: 1000 nM
